Laboratory results published in paper PMC8587416.

B1: hyaluronic acid synthase 3 (HAS3), overexpressed in MDA-MB-231 cells (enzyme, UniProt O00219 1-553)
chain: MPVQLTTALRVVGTSLFALAVLGGILAAYVTGYQFIHTEKHYLSFGLYGAILGLHLLIQSLFAFLEHRRMRRAGQALKLPSPRRGSVALCIAAYQEDPDYLRKCLRSAQRISFPDLKVVMVVDGNRQEDAYMLDIFHEVLGGTEQAGFFVWRSNFHEAGEGETEASLQEGMDRVRDVVRASTFSCIMQKWGGKREVMYTAFKALGDSVDYIQVCDSDTVLDPACTIEMLRVLEEDPQVGGVGGDVQILNKYDSWISFLSSVRYWMAFNVERACQSYFGCVQCISGPLGMYRNSLLQQFLEDWYHQKFLGSKCSFGDDRHLTNRVLSLGYRTKYTARSKCLTETPTKYLRWLNQQTRWSKSYFREWLYNSLWFHKHHLWMTYESVVTGFFPFFLIATVIQLFYRGRIWNILLFLLTVQLVGIIKATYACFLRGNAEMIFMSLYSLLYMSSLLPAKIFAIATINKSGWGTSGRKTIVVNFIGLIPVSIWVAVLLGGLAYTAYCQDLFSETELAFLVSGAILYGCYWVALLMLYLAIIARRCGKKPEQYSLAFAEV
B2: HAS3-EYFP (from the plasmid HAS3-EYFP-pcDNA3.1) (enzyme, UniProt O00219 1-553)
chain: B1 chain

Columns and labels:
[1] = target: β-tubulin (human (endogenous in MDA-MB-231)); assay: FRET or BRET; immunofluorescence staining of fixed MDA-MB-231 cells (HAS3-overexpressing against vector control) with antibodies to HAS3 and β-tubulin and FITC/rhodamine secondary antibodies; FRET analysis under a confocal microscope
[2] = target: α-tubulin-AmCyan (from the plasmid α-tubulin-AmCyan-pcDNA3.1); assay: FRET or BRET; FLIM-FRET in live MDA-MB-231 cells co-transfected with α-tubulin-AmCyan (donor) and HAS3-EYFP or EYFP (acceptor); donor lifetime collected every 30 min for 10 h; 37 °C, 5% CO2

Row | binding [1] | binding [2] | Binder
1 | binds |  | B1
2 |  | binds | B2

These are yes or no findings as the source states them, for the method shown. Binding seen in cells or lysates may run through a third protein. Binding calls can cover weak binding; strength is not graded here. For some assays here: Where a sequence is shown, tags or fusion partners need not be part of it.
